Experimental data reported in publication PMC5484619.
These are yes or no findings as the source states them, for the method shown. Binding seen in cells or lysates may run through a third protein. Some entries that bind do so weakly or less than the wild type.

Chains of the proteins cited; added tags and fusions are not shown. Lines headed by an entry give the natural chain unless they say otherwise; changes in a name come on top.
UniProt Q14258: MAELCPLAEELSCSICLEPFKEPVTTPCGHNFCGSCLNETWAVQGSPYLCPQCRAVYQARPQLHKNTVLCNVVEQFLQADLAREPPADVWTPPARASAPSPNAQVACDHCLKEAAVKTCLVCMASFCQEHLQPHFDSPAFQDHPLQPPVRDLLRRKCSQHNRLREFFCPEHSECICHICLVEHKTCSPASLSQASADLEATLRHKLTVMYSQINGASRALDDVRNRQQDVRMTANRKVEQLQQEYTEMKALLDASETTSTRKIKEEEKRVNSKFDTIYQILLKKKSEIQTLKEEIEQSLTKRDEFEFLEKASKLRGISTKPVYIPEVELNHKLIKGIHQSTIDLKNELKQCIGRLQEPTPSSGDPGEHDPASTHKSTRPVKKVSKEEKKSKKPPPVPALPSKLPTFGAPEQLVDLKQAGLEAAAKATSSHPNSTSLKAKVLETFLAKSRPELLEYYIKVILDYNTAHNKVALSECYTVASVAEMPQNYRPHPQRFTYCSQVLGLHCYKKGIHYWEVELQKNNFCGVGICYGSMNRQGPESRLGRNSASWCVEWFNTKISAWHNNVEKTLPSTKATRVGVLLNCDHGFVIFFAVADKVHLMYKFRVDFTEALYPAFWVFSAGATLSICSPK
UniProt Q7Z434: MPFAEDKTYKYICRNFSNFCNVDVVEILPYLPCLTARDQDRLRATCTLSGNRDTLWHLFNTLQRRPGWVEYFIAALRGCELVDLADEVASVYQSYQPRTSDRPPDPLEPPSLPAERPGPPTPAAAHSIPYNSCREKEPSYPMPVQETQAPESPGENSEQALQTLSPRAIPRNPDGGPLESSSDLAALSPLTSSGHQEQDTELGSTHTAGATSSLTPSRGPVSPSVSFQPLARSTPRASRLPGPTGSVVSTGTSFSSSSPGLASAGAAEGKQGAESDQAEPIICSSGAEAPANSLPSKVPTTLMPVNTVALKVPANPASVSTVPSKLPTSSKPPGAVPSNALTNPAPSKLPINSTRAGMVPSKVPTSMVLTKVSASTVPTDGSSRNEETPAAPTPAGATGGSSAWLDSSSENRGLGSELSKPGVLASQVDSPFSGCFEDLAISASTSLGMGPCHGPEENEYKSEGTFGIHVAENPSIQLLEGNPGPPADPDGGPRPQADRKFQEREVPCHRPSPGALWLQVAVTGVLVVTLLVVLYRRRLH
UniProt P17742: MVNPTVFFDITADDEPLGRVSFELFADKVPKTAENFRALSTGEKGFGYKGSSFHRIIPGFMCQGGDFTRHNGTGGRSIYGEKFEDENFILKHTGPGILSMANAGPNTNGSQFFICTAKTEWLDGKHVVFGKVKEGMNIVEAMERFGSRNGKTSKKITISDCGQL
UniProt Q61510: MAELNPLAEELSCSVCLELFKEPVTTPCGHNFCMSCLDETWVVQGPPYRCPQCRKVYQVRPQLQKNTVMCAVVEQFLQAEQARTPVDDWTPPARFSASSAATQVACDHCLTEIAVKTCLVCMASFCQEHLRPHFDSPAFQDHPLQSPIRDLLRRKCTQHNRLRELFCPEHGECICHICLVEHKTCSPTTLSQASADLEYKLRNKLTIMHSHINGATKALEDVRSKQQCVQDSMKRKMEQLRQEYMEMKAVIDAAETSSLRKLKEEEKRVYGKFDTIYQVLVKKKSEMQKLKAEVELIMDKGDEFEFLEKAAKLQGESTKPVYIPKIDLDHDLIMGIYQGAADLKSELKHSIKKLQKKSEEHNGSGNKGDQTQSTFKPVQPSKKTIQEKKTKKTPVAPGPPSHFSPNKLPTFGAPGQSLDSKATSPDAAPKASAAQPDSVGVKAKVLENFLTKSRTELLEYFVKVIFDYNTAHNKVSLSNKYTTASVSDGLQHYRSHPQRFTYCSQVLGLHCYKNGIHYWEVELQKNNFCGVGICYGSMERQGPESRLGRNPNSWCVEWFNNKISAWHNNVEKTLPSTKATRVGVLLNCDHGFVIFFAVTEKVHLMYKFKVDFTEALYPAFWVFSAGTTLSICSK

Legend:
[1] = molecular target: Flag-TRIM25 (UniProt Q14258); test: co-IP; 293T/CypA+ or 293T/CypA- cells transfected for 24 hr with tagged constructs; lysis in 0.5% NP40, 150 mM NaCl, 20 mM HEPES pH 7.4, 10% glycerol, 1 mM EDTA; anti-Flag beads 4 hr at 4°C; five washes with 300 mM NaCl; immunoblot; some panels with or without co-expressed CypA or TRIM25
[2] = molecular target: Flag-MAVS (UniProt Q7Z434); test: as above
[3] = molecular target: T1, endogenous RIG-I of mouse BMDMs (mouse (endogenous in BMDMs)) (UniProt Q6Q899); test: co-IP; endogenous proteins; WT (and Ppia-/-) mouse BMDMs infected with SeV for 6 hr; immunoprecipitation with anti-CypA or anti-RIG-I antibodies or control mouse IgG, Protein A/G PLUS-Agarose beads; immunoblot
T1 sequence: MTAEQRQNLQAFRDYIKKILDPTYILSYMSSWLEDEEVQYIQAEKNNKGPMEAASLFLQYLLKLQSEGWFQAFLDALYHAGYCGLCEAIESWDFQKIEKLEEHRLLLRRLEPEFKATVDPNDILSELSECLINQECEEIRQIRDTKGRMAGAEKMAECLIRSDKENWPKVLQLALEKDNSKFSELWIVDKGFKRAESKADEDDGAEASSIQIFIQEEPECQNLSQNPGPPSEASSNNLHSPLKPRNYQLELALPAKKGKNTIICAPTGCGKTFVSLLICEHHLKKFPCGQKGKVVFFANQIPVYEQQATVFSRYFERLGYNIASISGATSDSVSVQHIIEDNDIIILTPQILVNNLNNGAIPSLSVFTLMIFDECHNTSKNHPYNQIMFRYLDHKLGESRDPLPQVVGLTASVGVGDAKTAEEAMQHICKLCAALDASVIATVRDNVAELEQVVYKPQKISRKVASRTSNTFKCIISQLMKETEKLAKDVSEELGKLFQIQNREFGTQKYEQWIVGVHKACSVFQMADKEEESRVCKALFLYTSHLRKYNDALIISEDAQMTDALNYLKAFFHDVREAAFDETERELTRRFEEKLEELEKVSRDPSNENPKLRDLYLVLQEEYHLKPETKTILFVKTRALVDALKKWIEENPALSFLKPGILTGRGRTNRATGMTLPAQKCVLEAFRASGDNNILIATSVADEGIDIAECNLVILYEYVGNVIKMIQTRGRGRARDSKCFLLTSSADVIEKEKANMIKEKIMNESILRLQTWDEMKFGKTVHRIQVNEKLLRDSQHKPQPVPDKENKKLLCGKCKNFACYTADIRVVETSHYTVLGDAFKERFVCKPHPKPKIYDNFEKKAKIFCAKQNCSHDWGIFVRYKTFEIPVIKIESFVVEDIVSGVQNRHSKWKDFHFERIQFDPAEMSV

[4] = molecular target: endogenous CypA of mouse BMDMs (mouse (endogenous in BMDMs)) (UniProt P17742); test: as above

In the case of “HA-tagged deletion construct of MAVS, amino acids 360-540 (from UniProt Q7Z434 360-540) (domain or fragment)”, the binding [1] is reported as “binds”.

For “Myc-TRIM25 (from UniProt Q14258 1-630) (enzyme)”, the binding [2] was “binds”.

For “endogenous TRIM25 of mouse BMDMs (from UniProt Q61510 1-634) (enzyme)”, the binding [3] was “binds”.

B1: endogenous MAVS of mouse BMDMs (protein, UniProt Q8VCF0 1-503)
chain: MTFAEDKTYKYIRDNHSKFCCVDVLEILPYLSCLTASDQDRLRASYRQIGNRDTLWGLFNNLQRRPGWVEVFIRALQICELPGLADQVTRVYQSYLPPGTSLRSLEPLQLPDFPAAVSGPSAFAPGHNIPDHGLRETPSCPKPVQDTQPPESPVENSEQLLQTNSGAVARMSGGSLIPSPNQQALSPQPSREHQEQEPELGGAHAANVASVPIATYGPVSPTVSFQPLPRTALRTNLLSGVTVSALSADTSLSSSSTGSAFAKGAGDQAKAATCFSTTLTNSVTTSSVPSPRLVPVKTMSSKLPLSSKSTAAMTSTVLTNTAPSKLPSNSVYAGTVPSRVPASVAKAPANTIPPERNSKQAKETPEGPATKVTTGGNQTGPNSSIRSLHSGPEMSKPGVLVSQLDEPFSACSVDLAISPSSSLVSEPNHGPEENEYSSFRIQVDESPSADLLGSPEPLATQQPQEEEEHCASSMPWAKWLGATSALLAVFLAVMLYRSRRLAQ
With B1 the binding [4] was “binds”.

B2: endogenous RIG-I of mouse BMDMs (protein, UniProt Q6Q899 1-926)
chain: T1 sequence
In the case of B2, the binding [4] is reported as “binds”.
